Measurements reported in PubChem BioAssay AID1259405 (NCATS, 2018).
Screen: 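Silenced genes that increase secreted GFP made by CHO cells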 (primary screen). Cells: Chinese hamster CHO-K1 ovary cells with stable secreted eGFP expression. Reagents: single siRNA against mouse genes, 0.8 pmol siRNA per well (2 µl of 400 nM stock). Duration: 3 days. Measurement: 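Per-well intracellular GFP measured by laser scanning cytometry, plus viability from ATP luminescence, each relative to plate median of non-targeting control wells, in %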. Scale: GFP, % of control: higher = more GFP per well, higher productivity; viability (ATP), % of control: higher = more viable cells (more ATP). Hit rule: 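Called active when intracellular GFP, relative to negative control, is at or above 120%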.
Here is an unselected part of about 50,000 deposited reagents. About 4,000 of all reagents (8%) were called active. 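Mouse siRNA library applied to hamster cells; one well for each siRNA.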 A number with no mark means an inactive call. The numbers tell different reagents against one gene apart. Reagent sequences are not shown.

no.	Target gene	reagent	GFP, % of control	viability (ATP), % of control
1	Tnfaip8l3	1	65.5	50.7
2	Tnfaip8l3	2	83.8	108
3	Tnfaip8l3	3	118	133
4	Lias	1	71.4	86.6
5	Lias	2	102	108
6	Mrps27	1	103	71.4
7	Mrps27	2	99.1	90.6
8	Mrps27	3	86.5	66.4
9	Ldlrap1	1	101	66.1
10	Ldlrap1	2	79.4	85.5
11	Ldlrap1	3	95.9	82.8
12	Spop	1	125 (active)	131
13	Spop	2	50	65.9
14	Spop	3	99.9	87.8
15	Abca6	1	83.6	121
16	Abca6	2	33.9	48.9
17	Abca6	3	74.6	93.4
18	Prr14	1	37.5	67.6
19	Prr14	2	93.9	129
20	Prr14	3	109	139
21	Cyp24a1	1	92.6	76.2
22	Cyp24a1	2	132 (active)	93.3
23	Cyp24a1	3	82.8	59.4
24	Aard	1	95.9	81.4
25	Aard	2	82.5	92.9
26	Aard	3	115	81.7
27	Cenpu	1	118	72.7
28	Cenpu	2	50.9	91.4
29	Cenpu	3	67.7	69.8
30	Slc25a30	1	74.6	64.8
31	Slc25a30	2	140 (active)	112
32	Slc25a30	3	85.2	63.5
33	Ier2	1	67.8	64.8
34	Ier2	2	65.7	87.5
35	Ier2	3	84.4	80.8
36	S100a16	1	79.1	111
37	S100a16	2	74.8	75.3
38	Calr3	1	87.5	124
39	Calr3	2	78.4	98.4
40	4921504E06Rik	1	51.9	41.2
41	4921504E06Rik	2	82.9	80.5
42	4921504E06Rik	3	74.7	60.8
43	Prdx5	1	102	81.4
44	Prdx5	2	39.9	39.1
45	Prdx5	3	88.3	62.1
46	Pacs1	1	58.3	41.3
47	Pacs1	2	35.2	46.2
48	Pacs1	3	124 (active)	91.7
49	Pgap4	1	61.7	72.6
50	Pgap4	2	78.7	78.4
51	Pgap4	3	74.4	58.7
52	Ndufa8	1	76.5	120
53	Ndufa8	2	111	57.8
54	Fry	1	85.5	99.5
55	Fry	2	102	106
56	Fry	3	100	89.2
57	Kpna2	1	122 (active)	75.8
58	Kpna2	2	49.7	50.5
59	Kpna2	3	79	70.8
60	Or10g9b	1	67.7	64.2
61	Or10g9b	2	107	96.1
62	Or10g9b	3	57	67.4
63	Riok3	1	58.4	69.7
64	Smtnl2	1	60.1	61.8
65	Smtnl2	2	66.4	34.8
66	Smtnl2	3	79.6	97.1
67	Mrps14	1	77.7	102
68	Mrps14	2	50.3	43.6
69	Mrps14	3	131 (active)	75.5
70	Mat1a	1	68.5	81
71	Mat1a	2	68.4	136
72	Mat1a	3	113	111
73	Mast2	1	52.3	72.9
74	Trim2	1	121 (active)	57.3
75	Trim2	2	124 (active)	106
76	Trim2	3	108	119
77	Nsrp1	1	79.3	60.5
78	Nsrp1	2	64.2	87.6
79	Nsrp1	3	101	74.1
80	Ndufa5	1	75.7	98.7
81	Ndufa5	2	76	70
82	Ms4a6b	1	109	79.2
83	Ms4a6b	2	79.5	65.3
84	Ms4a6b	3	92.8	86
85	Gpr107	1	41.2	74.9
86	Gpr107	2	60	95.5
87	Tlr11	1	121 (active)	92
88	Tlr11	2	57.9	61.4
89	Tlr11	3	73.4	65.7
90	Dtd1	1	69.3	79.5
91	Dtd1	2	76.4	81.1
92	Slc6a9	1	92.7	72.5
93	Slc6a9	2	53.1	65
94	Slc6a9	3	72.8	76.6
95	Nemp2	1	55.9	52
96	Nemp2	2	116	117
97	Nemp2	3	134 (active)	113
98	Lypd11	1	33.2	28.9
99	Lypd11	2	220 (active)	61.1
100	Lypd11	3	83.3	76.8
101	Ppm1j	1	73.4	97.4
102	Ppm1j	2	43.4	47.4
103	Ppm1j	3	66.2	92.4
104	Cald1	1	98.9	91.4
105	Cald1	2	69.4	78.2
106	Cald1	3	66.7	84.6
107	Lama2	1	101	109
108	Lama2	2	81.8	82.4

Part of the list above, limited to “viability (ATP), % of control”.
Ier2 #2: 87.5
Ier2 #3: 80.8
S100a16 #1: 111
S100a16 #2: 75.3
Calr3 #1: 124
Calr3 #2: 98.4
4921504E06Rik #1: 41.2
4921504E06Rik #2: 80.5
4921504E06Rik #3: 60.8
Prdx5 #1: 81.4
Prdx5 #2: 39.1
Prdx5 #3: 62.1
Pacs1 #1: 41.3
